These are yes or no findings as the source states them, for the method shown. Some results given as binding are weak or reduced against the parent protein; the word gives no strength.
Columns and labels:
[1] = target: T1, cytoplasmic domain of Bacillus subtilis anti-sigma RsiW (residues 1-80), oxidized, zinc-free (B. subtilis 168 strain) (UniProt Q45588); assay: crystal structure; micro-batch at 20 °C, 0.1 M HEPES pH 7.5, 17% PEG3350, 3% isopropanol, 0.1 M CaCl2; zinc-binding form refined at 2.8 Å, oxidized zinc-free form at 2.6 Å; MAD phasing with Se-Met complex, then molecular replacement; both purified
T1 sequence (chain, disulfide bond between C3 and C37): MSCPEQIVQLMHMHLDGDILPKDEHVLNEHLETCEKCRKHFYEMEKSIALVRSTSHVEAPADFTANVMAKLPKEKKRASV

[2] = target: T2, cytoplasmic domain of Bacillus subtilis anti-sigma RsiW (residues 1-80), reduced, zinc-bound (B. subtilis 168 strain) (UniProt Q45588); assay: as above
T2 sequence: T1 sequence (chain, disulfide bond between C3 and C37)

[3] = target: T1, cytoplasmic domain of Bacillus subtilis anti-sigma RsiW (residues 1-80), oxidized, zinc-free (B. subtilis 168 strain); assay: co-purification (IMAC + SEC); SigW co-expressed with Hisx6-thioredoxin-RsiWcyto in E. coli in minimal media without zinc; purified through the His tag of RsiWcyto and by SEC in buffer B (20 mM HEPES pH 7.5, 0.2 M NaCl, 5% glycerol) without reducing agent and zinc

- binding [1]: binds
- binding [2]: binds
- binding [3]: binds
B1: Bacillus subtilis SigW (residues 1-187) (natural protein, B. subtilis 168 strain, UniProt Q45585 1-187, looked up)
chain: MEMMIKKRIKQVKKGDQDAFADIVDIYKDKIYQLCYRMLGNVHEAEDIAQEAFIRAYVNIDSFDINRKFSTWLYRIATNLTIDRIRKKKPDYYLDAEVAGTEGLTMYSQIVADGVLPEDAVVSLELSNTIQQKILKLPDKYRTVIVLKYIDELSLIEIGEILNIPVGTVKTRIHRGREALRKQLRDL
notes: SigW, ECF (group IV) sigma factor of Bacillus subtilis 168, residues 1-187; domains sigmaW2 (residues 3-95) and sigmaW4 (residues 125-187) joined by a disordered loop (96-125); No tag on SigW itself (cloned in MCS2 of pET-DUET1); it is purified through the His-tagged RsiWcyto; A selenomethionine-labelled complex (E. coli B834 (DE3)) was used for phasing only; also called sigma factor SigW; ECF …

Source: PMC5358783, “Structural insights into the regulation of Bacillus subtilis SigW activity by anti-sigma RsiW” (PLoS ONE, 2017)
